# PubChem BioAssay AID493014 (National Center for Advancing Translational Sciences (NCATS), 2011)
# The whole screen tested about 340,000 compounds, of which about 170 (0.05%) were called active. Inconclusive results, whose numbers are uncertain, are shown with a selection of clear calls. Calls follow the shape of the dose curve; as a rule, active = well fitted inhibition curve with a large enough effect in the signal ratio, with a control signal flat (not every such curve was filed as active); inconclusive = small, poorly fitted or top-dose-only effect, or effect the other way, or a change in a side signal; inactive = flat fitted curve, though single readings scatter; the % refers to the signal ratio. A potency beside an inconclusive call is a rough fit, not a confirmed value.
# Assay: qHTS Assay to Find Inhibitors of Chronic Active B-Cell Receptor Signaling;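 as to activity change, negative = inhibition: plate controls were basal doxycycline-induced cells for no effect and cells given 10 µM MG132 for full effect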
# Settings: ABC-DLBCL IkBa-CBG/CBR reporter, luminescence ratio (green luciferase fused to IkBa over red control in TMD8 lymphoma cells), 4 h; activity change, negative = inhibition: at 46.1 µM (top of the series)
# Outline: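 Concentration-response series (up to 46 uM) were applied to TMD8 dual-reporter cells for 4 h at 37C with doxycycline. Green/red ratio, after filter-overlap correction, defined %Activity; red signal alone was normalised to basal cells and zero luminescence.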
# Potency is read from the fitted curve at half-maximal effect.
Structure (SMILES),"activity change, negative = inhibition",Potency
COc1ccc(CC(=O)Nc2sc3c(c2C(N)=O)CCCC3)cc1,inconclusive: -6.95%,
CCCc1c(C(=O)Nc2ccc(F)cc2C)cnn1-c1ccccc1,,"inconclusive: 6.31 µM [falling, partial curve, poor fit]"
Cc1cc2nc(CCN(C(=S)NCC3CCCO3)C3CCCC3)[nH]c2cc1C (stereo unspecified),,"inconclusive: 20 µM [falling, single point]"
COc1cccc(NC(=O)c2oc3ccc(S(=O)(=O)N4CCCCCC4)cc3c2C)c1,inconclusive: 3.48%,
O=C(COC(=O)c1ccco1)c1ccc(Cl)cc1,inconclusive: 15.2%,
Cc1cc(C)cc(NC(=O)N2CCN(Cc3ccc4c(c3)OCO4)CC2)c1,inconclusive: -2.09%,
O=C(CCC1CCCN(C(=O)Cc2cccc(F)c2)C1)N1CCN(c2ccccn2)CC1 (stereo unspecified),,"inconclusive: 17.8 µM [falling, partial curve, poor fit]"
COc1ccc(C2=NS(=O)(=O)N(C)C(C(=O)N3CCc4ccccc4C3)=C2)cc1OC,inconclusive: -27.3%,
CC(=O)Oc1ccccc1N1C(=O)c2ccc(C(=O)O)cc2C1=O,,"inconclusive: 16.4 µM [falling, partial curve]"
O=[N+]([O-])c1ccc(/C=N\NS(=O)(=O)c2ccc(F)cc2)o1,inactive,
N#Cc1c(N2CCN(C(=O)c3ccco3)CC2)nc(-c2ccccc2)c2c1CCCC2,inconclusive: 11.1%,
O=C(N/N=C/c1ccncc1)c1ccccn1,inconclusive: -12%,
CCN(CC)CCn1c(=N)n(CC(=O)c2ccc(Br)s2)c2ccccc21,,"inconclusive: 12.6 µM [falling, partial curve]"
CSc1ccccc1OCc1cc(C(=O)N2CCC(Oc3cccnc3)CC2)no1,,"inconclusive: 22.4 µM [falling, single point]"
O=S(=O)(NCC(c1ccco1)N1CCN(c2ccccc2)CC1)c1cc(F)ccc1F (stereo unspecified),,"inconclusive: 0.0891 µM [rising, full curve, poor fit]"
Cc1ccc(CSCCNS(=O)(=O)c2ccc([N+](=O)[O-])cc2)cc1,inactive,
COCCNCCCCOc1ccccc1-c1ccccc1,inconclusive: -2.66%,
CCCCc1nc2ccccc2c(N)c1CCC (tested in a mixture with another compound),inconclusive: -5.48%,
Cc1ccccc1OCC(=O)N=Nc1c(O)n(C)c2ccccc12,inconclusive: 13.7%,
O=C(Nc1ccc(F)cc1F)c1ccc(-n2cncn2)nc1,,"inconclusive: 6.51 µM [falling, partial curve, poor fit]"
COc1cc(SC)ccc1C(=O)OC(C)C(=O)Nc1ccc(NC(C)=O)cc1 (stereo unspecified),,"inconclusive: 11.2 µM [falling, partial curve, poor fit]"
O=C(/C=C/c1ccccc1)NCCc1ccc2c(c1)OCCO2,,"inconclusive: 29.1 µM [falling, single point]"
CCc1cc(C(=O)O)c(NC(=O)c2cc(OC)c(OC)c(OC)c2)s1,,"inconclusive: 35.5 µM [falling, single point]"
CCn1nc(C)c(CN2CCCC(CO)(Cc3cccc(Cl)c3)C2)c1C (stereo unspecified),inactive,
O=C(O)C1CCN(C(=O)CSc2nc3cc(Cl)ccc3c(=O)n2Cc2ccccc2)CC1,inconclusive: 2.64%,
O=C(NCCCN1CCCC1=O)C1CCN(S(=O)(=O)c2cccc(Cl)c2Cl)CC1,inconclusive: -2.87%,

Structure (SMILES),"activity change, negative = inhibition",Potency
CCCCOc1ccc(CSc2nncn2N)cc1,inconclusive: 3.71%,
Cc1ccc(C)c(OCCn2cc(/C=C(\C#N)C(=O)NCc3ccco3)c3ccccc32)c1,inactive,
COc1ccc(CNC(=O)CN(Cc2ccc(C)cc2)C(=O)c2csnn2)cc1,inactive,
CCCCNc1oc(-c2ccc(OC)cc2)nc1S(=O)(=O)c1ccccc1,,"inconclusive: 14.6 µM [falling, partial curve]"
COC(=O)c1ccc(S(=O)(=O)N(C2CCCCC2)C2CCCCC2)n1C,inactive,
COc1cc(S(=O)(=O)N2CCCCCC2)ccc1Cl,inactive,
COc1cc(OC)cc(-c2c(-c3cccs3)c3cc(-c4ccc5c(c4)OCO5)ccc3n2C)c1,inactive,
S=c1[nH]nc(-c2ccc(Cl)cc2Cl)n1-c1ccccc1,,"inconclusive: 3.16 µM [falling, full curve]"
Cc1ccc(NS(=O)(=O)c2ccc(C(=O)N3CCN(S(=O)(=O)c4ccccc4)CC3)cc2)cc1,inactive,
CNC(=O)c1cc(NC(=O)CCn2nc(-c3ccc(C)cc3)c3ccccc3c2=O)ccc1OC,,"inconclusive: 3.98 µM [falling, full curve, poor fit]"
Cc1cc(=O)oc2cc(OCC(=O)OCC(=O)NC(=O)NC(C)C)ccc12,inconclusive: 5.43%,
Cc1ccccc1-c1coc2cc(O)ccc2c1=O,inactive,
CC(C)(C)NCC(O)COc1ccccc1C1CCCC1 (stereo unspecified),,"inconclusive: 29.1 µM [falling, partial curve, poor fit]"
O=c1c2ccccc2nc(N/N=C/c2ccccc2)n1O,,"inconclusive: 31.6 µM [rising, single point]"
Cn1cc(Br)c(C(=O)NNC(=O)Nc2ccccc2C(F)(F)F)n1,,"inconclusive: 14.1 µM [falling, partial curve]"
COc1ccc2ccccc2c1/C=N/n1cnnc1,inactive,
O=C(NCc1cccs1)c1ccc(N2CCCC2=O)cc1,inconclusive: 7.36%,
Cc1cccc(NC(=O)CSc2nc3n[nH]c(C)c3c(=N)n2-c2cccc(Cl)c2)c1,inconclusive: -19.3%,
Cc1ccc(CSCC(=O)Nc2ccc(F)cc2)cc1,,"inconclusive: 23.1 µM [falling, partial curve]"
CCCOc1ccc(C(=O)NCC2OCCc3ccccc32)cc1OC (stereo unspecified),,"inconclusive: 0.0891 µM [falling, full curve, poor fit]"
Cc1ccccc1NS(=O)(=O)c1ccc(N2CCCC2=O)cc1,,"inconclusive: 35.5 µM [falling, partial curve, poor fit]"
Cc1ccc(Nc2nc(-c3ccc(O)cc3O)cs2)nc1,,"inconclusive: 35.5 µM [falling, single point]"
CCOc1ccc(NC(=O)c2cnccn2)cc1,,"inconclusive: 5.17 µM [falling, single point]"
O=C(c1ccccc1S(=O)(=O)NCc1ccccc1)N1CCCC1,inconclusive: -19.3%,
CCC1Oc2ccc(C)cc2N(CC(=O)NCc2cccc(OC)c2)C1=O (stereo unspecified),,"inconclusive: 8.91 µM [falling, partial curve, poor fit]"
CCNC(=O)NNC(=O)C1CC(c2cccs2)=NO1 (stereo unspecified),inconclusive: 7.34%,

Structure (SMILES),"activity change, negative = inhibition",Potency
Cc1cc(C)n2nc(S(=O)(=O)Nc3c(Cl)cccc3Cl)nc2n1,inconclusive: 4.47%,
CCCNC(=O)N1CCN(c2nc(C(C)C)c3c(c2C#N)CC(C)(C)OC3)CC1,inconclusive: 11.2%,
Cc1nnc(NC(=O)c2oc3cc(C)c(C)cc3c2C)s1,,"inconclusive: 0.651 µM [falling, partial curve, poor fit]"
COC(=O)CSc1nnc(CNC(=O)c2cc(OC)cc(OC)c2)n1-c1ccc(F)cc1,inconclusive: -19.7%,
COc1ccccc1N(Cc1cc(=O)[nH]c2ccccc12)C(=O)c1cccc([N+](=O)[O-])c1,inconclusive: -26.3%,
O=C(Nc1cccc(O)c1)c1ccc(C(=O)c2ccccc2)o1,,"inconclusive: 22.4 µM [falling, single point]"
Cc1sc2ncnc(N3CCC(C(=O)NNC(=O)COc4ccc(Br)cc4)CC3)c2c1C,inconclusive: -23.1%,
O=C(Nc1ccc(N2CCN(c3ccc(F)cc3)CC2)c(C(=O)O)c1)c1cccs1,inactive,
O=C(COc1ccccc1)Nc1cccc(-c2nc3ccccc3[nH]2)c1,inconclusive: 0.483%,
Cn1c(-c2ccc3ccccc3n2)nc2cnccc21,inconclusive: 3.72%,
COc1cccc(C(=O)NC(Cc2ccccc2)c2ccc3c(c2)OCCCO3)c1 (stereo unspecified),,"inconclusive: 3.66 µM [falling, full curve]"
Cc1cc(/C=N/NC(=O)c2cccs2)c(C)n1-c1ccccc1,,"inconclusive: 29.1 µM [falling, single point]"
Cc1ccc(NC(=O)/C=C/c2ccco2)cc1F,,"inconclusive: 12.6 µM [falling, single point]"
CCc1nnc(NC(=O)CSc2ccc(-c3ccc(F)cc3)nn2)s1,inconclusive: -2.68%,
CC(=O)Nc1ccccc1N(C)S(=O)(=O)c1ccc(C)cc1,inconclusive: 320%,
CC(C)N1CCC(=NNc2ccc([N+](=O)[O-])cc2S(=O)(=O)N2CCOCC2)CC1,inconclusive: 1.97%,
S=C(Nc1ccc(Cl)cc1Cl)NC1CCN(Cc2ccccc2)CC1,inconclusive: -8.98%,
CCOc1nc2ccccc2cc1C=O,inconclusive: -3.74%,
Cn1cnc([N+](=O)[O-])c1Sc1ccc(C(C)(C)C)cc1,inconclusive: -10.1%,
N/C(=N\OC(=O)c1cccc(Cl)c1)c1cccnc1,,"inconclusive: 29.1 µM [falling, single point]"
CC1(C)CC(=O)C(C=Nc2ccc3cn[nH]c3c2)=C(O)C1,,"inconclusive: 35.5 µM [cytotoxic, single point]"
O=C1N2CCCc3cccc(c32)C12Nc1ccccc1S2 (stereo unspecified),,"inconclusive: 2.91 µM [rising, full curve, poor fit]"
CC(C)Sc1nc2ccc(Br)cc2[nH]1,inconclusive: 13.7%,
CN(C)C=NC1=NN(c2cccc(C(F)(F)F)c2)CC1,inconclusive: 12.6%,

# Some values from the list:
# Value of COc1cccc(C(=O)NC(Cc2ccccc2)c2ccc3c(c2)OCCCO3)c1 (stereo unspecified) under Potency: inconclusive: 3.66 µM [falling, full curve]
# Value of O=C1N2CCCc3cccc(c32)C12Nc1ccccc1S2 (stereo unspecified) under Potency: inconclusive: 2.91 µM [rising, full curve, poor fit]
# Value of CCOc1nc2ccccc2cc1C=O under activity change, negative = inhibition: inconclusive: -3.74%
# Value of O=C(COc1ccccc1)Nc1cccc(-c2nc3ccccc3[nH]2)c1 under activity change, negative = inhibition: inconclusive: 0.483%
# Value of Cn1c(-c2ccc3ccccc3n2)nc2cnccc21 under activity change, negative = inhibition: inconclusive: 3.72%
# Value of Cc1nnc(NC(=O)c2oc3cc(C)c(C)cc3c2C)s1 under Potency: inconclusive: 0.651 µM [falling, partial curve, poor fit]
